From PubChem BioAssay AID624291 (National Center for Advancing Translational Sciences (NCATS), 2012)
Out of some 350,000 compounds screened, about 220 (0.063%) were called active. Inconclusive results, whose numbers are uncertain, are shown with a selection of clear calls. The call rests on the fitted dose curve; in most records, active means well fitted activation curve with a large enough effect; inconclusive means small, poorly fitted or top-dose-only effect; inactive means no such curve, though single readings can be large or run the other way. Potencies beside an inconclusive call are fits to weak or partial responses and may not hold up.

experiment: qHTS for Activators of Integrin-Mediated Alleviation for Muscular Dystrophy; conditions: alpha7betagal myoblasts, beta-gal FDG fluorescence, 48 h; activation: at 38.3 µM (top of the series); further: nearly all actives have a fitted effect of over 60% in size;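 on activation: 100% = response of the positive control SU9516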
Outline: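 alpha7betagal+/- myoblasts (passage 13, 250/well) treated 48 h at 37C with compounds at 1:260 dilution of DMSO stock. Lysed, then beta-galactosidase activity read as FDG fluorescence (ex 480/em 540) after 30 min, with pre-read for autofluorescence.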
Potency means the concentration at half of the fitted maximal effect.

SMILES	activation	Potency
COCCn1c(SCC(=O)NCc2ccco2)nnc1C(C)C	inactive: 1.25%	
CC/C=C/C(=O)N1CC2(CC(c3cccc(NC(=O)CC(c4ccccc4)c4ccccc4)c3)=NO2)C[C@@H]1C(N)=O (some centres not stated)	inactive: -42.8%	
CCCOc1ccc(NC(=O)CC2C(=O)N(Cc3ccccc3)C(=S)N2Cc2cccs2)cc1 (configuration not stated)		inconclusive: 11.2 µM [activator, single point]
CCc1ccc(CN2CCSCC2)cc1		inconclusive: 11.2 µM [activator, partial curve, poor fit]
CN(Cc1ccccc1)/C(=N/O)c1cccc(Cl)c1		inconclusive: 1.78 µM [activator, partial curve, poor fit]
CCCn1c(N2CCN(C(=O)/C=C/C(=O)O)CC2)nc2ccccc21		inconclusive: 3.16 µM [activator, single point]
COc1ccc(-c2nc(NC3=NCCCCC3)sc2C)cc1		inconclusive: 5.01 µM [activator, single point]
Cc1nnc(SCc2nnc(-c3cccs3)o2)n1Cc1ccccc1	inactive: 3.88%	
Cc1cc(C)cc(NC(=O)N2CCCC2C(=O)NCc2ccco2)c1 (configuration not stated)		inconclusive: 2.82 µM [activator, single point]
COc1ccc(CNC(=O)CN2C(=O)c3ccc([N+](=O)[O-])cc3C2=O)cc1		inconclusive: 28.2 µM [activator, single point]
Cc1cc(NS(=O)(=O)c2c(C)c(C)cc(C)c2C)no1		inconclusive: 2.82 µM [activator, partial curve, poor fit]
Cc1cccc(C)c1NC(=O)CCn1cnc2ccccc2c1=O		inconclusive: 22.4 µM [activator, single point]
Cc1cc(Br)c(OCC(=O)NN)c2c1CCC2		inconclusive: 11.2 µM [activator, partial curve, poor fit]
CN(C)C(=O)NC(NC(=S)Nc1ccccc1)C(Cl)(Cl)Cl (configuration not stated)		inconclusive: 3.16 µM [activator, single point]
CCOC(=O)CN(C(=O)CSc1nnc(COc2ccc(OC)cc2)n1C)c1ccccc1		inconclusive: 7.94 µM [activator, partial curve, poor fit]
N#Cc1nc(COc2ccc(Br)cc2)oc1N1CCN(Cc2ccccc2)CC1		inconclusive: 17.8 µM [activator, partial curve, poor fit]
CC(=O)C1=C(O)C(=O)N(Cc2ccccc2)C1c1ccc(N(C)C)cc1 (configuration not stated)		inconclusive: 28.2 µM [activator, single point]
O=S(=O)(c1cccc(-c2cn3ccccc3n2)c1)N1CCCC1		inconclusive: 2.82 µM [activator, single point]
COc1ccc(OC)c(CCNC(=O)c2ccc3c(c2)N(Cc2ccc(F)cc2)CCS3)c1		inconclusive: 5.01 µM [activator, single point]
Cc1c(Cl)cccc1NS(=O)(=O)c1ccccc1		inconclusive: 2.82 µM [activator, single point]
CCc1ccc(N(CC(=O)N2CCCCCC2)S(C)(=O)=O)cc1		inconclusive: 3.16 µM [activator, single point]
Cc1cccc(NC(=O)CSc2ncnc3sc(C)cc23)c1		inconclusive: 14.1 µM [activator, single point]
CCCCN(CCCC)CCNC(=O)c1cn(C)c2ccc(S(=O)(=O)N(C)C3CCCCC3)cc2c1=O		active: 10 µM

SMILES	activation	Potency
COc1ccc(C2=Nn3c(nnc3-c3ccc(OC)cc3)SC2)cc1	inactive: -40.5% [at 7.66 µM]	
CC(C)(C)C(=O)NC1(C(F)(F)F)NC(=O)N(Cc2ccccc2)C1=O (configuration not stated)		inconclusive: 1.12 µM [activator, partial curve, poor fit]
COCCCNC(=O)c1ccc2c(c1)ncn2-c1ccc(C)cc1C		inconclusive: 28.2 µM [activator, single point]
CC1CCCCC1NC(=O)c1cc2ccccc2o1 (configuration not stated)		inconclusive: 14.1 µM [activator, single point]
O=C(COc1ccccc1-c1ccccc1)NNC(=O)NC1CCCCC1	inactive: -21.7%	
O=C(Nc1ccccc1O)c1ccc(NC(=O)C2CC2)cc1	inactive: 2.95%	
Clc1ccc(Nc2ccc3ccccc3n2)cc1		inconclusive: 5.01 µM [activator, single point]
N#Cc1ccccc1NC(=O)CSC1=Nc2ccccc2C2CC=NN12 (configuration not stated)	inactive: -6.57%	
CC(C)N1C(=O)CSC1c1ccc(Br)cc1 (configuration not stated)		inconclusive: 1.78 µM [activator, partial curve, poor fit]
COc1ccc(/C=C/C(=O)Nc2cccc(S(=O)(=O)N3CCCC3)c2)cc1OC	inactive: 3.17%	
COc1ccc(N2CC(C(=O)N/N=C/c3ccccc3)CC2=O)cc1 (configuration not stated)		inconclusive: 3.98 µM [activator, single point]
O=C(NCCc1ccccc1)C1CCN(c2ncccn2)CC1		inconclusive: 5.01 µM [activator, single point]
COCCn1c(SCC(=O)NC(C)c2ccc(F)cc2)nc2ccccc21 (configuration not stated)		inconclusive: 5.01 µM [activator, full curve, poor fit]
COc1cc(OC)c2c(-c3ccccc3)cc(=O)oc2c1C(CCN1CCOCC1)c1ccc2c(c1)OCO2 (configuration not stated)	inactive: -18.7%	
N=c1oc2ccccc2cc1C(=O)Nc1ccccc1		inconclusive: 1.58 µM [activator, partial curve, poor fit]
CN(C)c1ccc(/C=N/n2ncc3ccccc32)cc1	inactive: 5.63%	
COc1ccc(NC2c3ccccc3C(=O)N2c2cccnc2)cc1 (configuration not stated)		inconclusive: 3.16 µM [activator, partial curve, poor fit]
O=C(CN1C(=O)NC(c2ccccc2)(c2ccccc2)C1=O)N1CCN(c2ccc(F)cc2)CC1		inconclusive: 8.91 µM [activator, partial curve, poor fit]
N#Cc1ccc(OCC(=O)N2CCN(c3ccc(C(F)(F)F)cn3)CC2)cc1		inconclusive: 4.47 µM [activator, full curve, poor fit]
COC(=O)C(Cc1ccccc1)NC(=O)CNC(=O)c1ccc(Br)cc1 (configuration not stated)		inconclusive: 11.2 µM [activator, single point]
Cc1cccc(C(=O)Nc2ccc(C(=O)/C=C/c3cccnc3)cc2)c1	inactive: -23.9%	
CC1CCCN(c2nc(-c3cccnc3)nc3scc(-c4ccccc4)c23)C1 (configuration not stated)		inconclusive: 2.24 µM [activator, partial curve, poor fit]
COc1ccc(CC(=O)OCC(=O)Nc2ccc(Br)cc2)cc1		inconclusive: 2.82 µM [activator, single point]

SMILES	activation	Potency
CCOC(=O)C1CCN(c2c(NCCC(C)C)c(=O)c2=O)CC1		inconclusive: 28.2 µM [activator, single point]
COC(=O)c1nn(-c2ccccc2)ccc1=O		inconclusive: 5.01 µM [activator, single point]
CCn1c(=O)cc(OCC(=O)NCCc2cccc(C)c2)c2ccccc21		inconclusive: 10 µM [activator, single point]
CC1CCCCN1C(=O)CSc1nnc2c(n1)[nH]c1ccccc12 (configuration not stated)		inconclusive: 14.1 µM [activator, partial curve, poor fit]
Cc1ccc2nc(-c3ccncc3)cc(C(=O)Nc3ccc(F)cc3C)c2c1		inconclusive: 14.1 µM [activator, single point]
COc1ccc(CN2CCN(CCCc3ccccc3)C(CCO)C2)c(O)c1 (configuration not stated)	inactive: -15.3%	
CCc1nnc(NC(=O)C2COc3ccccc3O2)s1 (configuration not stated)		inconclusive: 11.2 µM [activator, partial curve, poor fit]
Cc1cc(=O)oc2cc(OS(C)(=O)=O)ccc12		inconclusive: 28.2 µM [activator, single point]
COc1ccc(-c2cc(C(=O)Nc3c(C)n(C)n(-c4ccccc4)c3=O)no2)cc1		inconclusive: 0.501 µM [activator, full curve, poor fit]
Cc1cccc(-c2cc3nc4c(c(N5CCOCC5)n3n2)CCCC4)c1	inactive: -6.09%	
Cc1ccc(-c2csc(/C(C#N)=C(\O)CN3CCN(C(=O)c4ccco4)CC3)n2)cc1		inconclusive: 7.94 µM [activator, partial curve, poor fit]
C=CCn1c(SCC(=O)NC2CCCC2)nc2sc(C)cc2c1=O		inconclusive: 5.62 µM [activator, full curve]
Cc1nn(CC(=O)NC2(C)CCS(=O)(=O)C2)c(C)c1S(=O)(=O)N(C)C (configuration not stated)		inconclusive: 28.2 µM [activator, single point]
O=C(O)/C(=C\c1ccc(Cl)c([N+](=O)[O-])c1)c1ccc(S(=O)(=O)N2CCCCC2)s1	inactive: 0%	
O=C(c1ccc(Br)s1)N1CCN(c2ccccn2)CC1	inactive: 23.6%	
Oc1cccc(Nc2nc(-c3ccccc3Cl)nc3ccccc23)c1		inconclusive: 1 µM [activator, full curve, poor fit]
CC1(C)OC(=O)N(CC(=O)Nc2cccc(C(F)(F)F)c2)C1(C)O (configuration not stated)		inconclusive: 28.2 µM [activator, single point]
CC(C)(C)NC(=O)NC(=O)COC(=O)c1cccc(OC(F)F)c1		inconclusive: 11.2 µM [activator, single point]
Cc1ccc(S(=O)(=O)Nc2ccsc2C#N)cc1		inconclusive: 5.01 µM [activator, single point]
O=C(NN1CCOCC1)c1cc(Cl)ccc1Cl	inactive: 14.4%	
COc1ccc(C2CC(c3ccccc3)=NN2C(=O)CSc2nccc(=O)[nH]2)cc1 (configuration not stated)		inconclusive: 3.98 µM [activator, partial curve, poor fit]

Look-ups from the entries so far.
Entry for CCc1ccc(N(CC(=O)N2CCCCCC2)S(C)(=O)=O)cc1 under Potency: inconclusive: 3.16 µM [activator, single point]
Entry for COc1ccc(NC2c3ccccc3C(=O)N2c2cccnc2)cc1 (configuration not stated) under Potency: inconclusive: 3.16 µM [activator, partial curve, poor fit]
Entry for COCCn1c(SCC(=O)NC(C)c2ccc(F)cc2)nc2ccccc21 (configuration not stated) under Potency: inconclusive: 5.01 µM [activator, full curve, poor fit]
